Experiment [1] has as its target Ctpom152^194-1256 (chymotryptic fragment) (Chaetomium thermophilum) (UniProt G0SB44). The experiment is described as follows: negative-stain EM; purified detergent-free fragment, uranyl acetate stain; both purified.
The target in experiment [2] is Ctpom152^186-1270 (Chaetomium thermophilum) (UniProt G0SB44). Nature of the experiment: SEC-MALS; Ctpom152^186-1270 injected at 6, 4 and 2 mg/mL per injection; both purified.

These are yes or no findings as the source states them, for the method shown.

B1: Ctpom152^194-1256 (chymotryptic fragment) (domain or fragment, UniProt G0SB44 194-1256)
chain: LPEGSAILNPELQPFCLGGDRKTANIPIFFNSTIPVEVELIRTDFETGQQESIKLSKSQLRDIERRAKRESQDGDTVQSIVQFDFPVKKTGAYRLGRVLDEYKLEVQRRNPLTFVVSCPKAWVGPALSAHRCVGDLSDLSMMVEGTPPLKIKYSRMINGKDHSFHFQSLQPEGFVSPLSGLRSNNWGYDEDDISWARAQKVPVGLNESMHSSGDWQYSIDEVQDGFGNIIKYDSLADDPDGKPKPKHLTQSFVVKKRPVIRLEGCDLRHPLKVAKGKSKNLPVSYGLSGGSREDSTYQIAWQFSPIDTLTESGDHGDVVTIGTYTAKNNRDRPTISAPGLYTLKSVSASQCEGEIQEPSSCLLLNPLEPRLSLRHEEIPDTCAGNSIGLRVDLDLIGTPPFIVRYDVISNGERRSERVSIPGLRYQLDLVPRIAGHHKYIFTHVGDSIYDGQKLSGPEYVLEQDVKPAAAALIQHSTGKMSSCLGDQVTVDILLLGDPPFTLEWELIHDGKRKQFKVPNIQENSYQIKTAPLTTGGEYTLGLTSVQDKRGCRNFLQEELKISVRRQSPRAAFGQVDGKRKILAVEGSSVKLPLRLTGEGPWKVYYANLHDGSPDKPKVQEKIIKSDNGFLEVRGRGAFAITDVWDSQCHGVVDPKASRFDVDWFPRPELSVALTHGVSKTETGFQLQDVCEGDVSGFEVALKGTPPFTVEYEVRHHPLQGSSSLSKKKIEGVVGKEAIQADTSKAGTYTYKFTALEDDLYSSNRGFQPIIVKQNVNRKPTASFVKPGQTFKYCKSEQDNEDGIPITLTGVPPFFLEVEIKHQSAAVPEIYRTPAIDSHSYELKIPRHHLRLGTQHIRIRDIRDGSGCHSTSGILSGPSVQVQLFEAPTIYPLETRTDYCVGERISYTLSGQAPFEVWYTFNGVELKAKSPNTNFRRIAESPGEFTITSVSDKASECRAPVSITKTIHPLPAVRISKGKSVRVDIHEGGEVDILFEFFGTPPFEFTYTRSTNARKGQKSQVLETRHDISHEHSKVIKASQEGTYEVVAIKDKYCSFSTQAVVGL
Turning to B1, the binding entry in experiment [1] is listed as “no binding”.

B2: Ctpom152^186-1270 (domain or fragment, UniProt G0SB44 186-1270)
chain: MGRQIINILPEGSAILNPELQPFCLGGDRKTANIPIFFNSTIPVEVELIRTDFETGQQESIKLSKSQLRDIERRAKRESQDGDTVQSIVQFDFPVKKTGAYRLGRVLDEYKLEVQRRNPLTFVVSCPKAWVGPALSAHRCVGDLSDLSMMVEGTPPLKIKYSRMINGKDHSFHFQSLQPEGFVSPLSGLRSNNWGYDEDDISWARAQKVPVGLNESMHSSGDWQYSIDEVQDGFGNIIKYDSLADDPDGKPKPKHLTQSFVVKKRPVIRLEGCDLRHPLKVAKGKSKNLPVSYGLSGGSREDSTYQIAWQFSPIDTLTESGDHGDVVTIGTYTAKNNRDRPTISAPGLYTLKSVSASQCEGEIQEPSSCLLLNPLEPRLSLRHEEIPDTCAGNSIGLRVDLDLIGTPPFIVRYDVISNGERRSERVSIPGLRYQLDLVPRIAGHHKYIFTHVGDSIYDGQKLSGPEYVLEQDVKPAAAALIQHSTGKMSSCLGDQVTVDILLLGDPPFTLEWELIHDGKRKQFKVPNIQENSYQIKTAPLTTGGEYTLGLTSVQDKRGCRNFLQEELKISVRRQSPRAAFGQVDGKRKILAVEGSSVKLPLRLTGEGPWKVYYANLHDGSPDKPKVQEKIIKSDNGFLEVRGRGAFAITDVWDSQCHGVVDPKASRFDVDWFPRPELSVALTHGVSKTETGFQLQDVCEGDVSGFEVALKGTPPFTVEYEVRHHPLQGSSSLSKKKIEGVVGKEAIQADTSKAGTYTYKFTALEDDLYSSNRGFQPIIVKQNVNRKPTASFVKPGQTFKYCKSEQDNEDGIPITLTGVPPFFLEVEIKHQSAAVPEIYRTPAIDSHSYELKIPRHHLRLGTQHIRIRDIRDGSGCHSTSGILSGPSVQVQLFEAPTIYPLETRTDYCVGERISYTLSGQAPFEVWYTFNGVELKAKSPNTNFRRIAESPGEFTITSVSDKASECRAPVSITKTIHPLPAVRISKGKSVRVDIHEGGEVDILFEFFGTPPFEFTYTRSTNARKGQKSQVLETRHDISHEHSKVIKASQEGTYEVVAIKDKYCSFSTQAVVGLEGGKKDKTKKLKVY
As to B2, the binding entry in experiment [2] is on record as “no binding (tested: 6 mg/mL per injection)”.

The values above are taken from paper PMC6141588, “Electron microscopy of Chaetomium pom152 shows the assembly of ten-bead string” (Cell Discovery, 2018).
